This is one part of the list.

Chains of the proteins cited; added tags and fusions are not shown.
UniProt Q0JBA9, entry or part of it: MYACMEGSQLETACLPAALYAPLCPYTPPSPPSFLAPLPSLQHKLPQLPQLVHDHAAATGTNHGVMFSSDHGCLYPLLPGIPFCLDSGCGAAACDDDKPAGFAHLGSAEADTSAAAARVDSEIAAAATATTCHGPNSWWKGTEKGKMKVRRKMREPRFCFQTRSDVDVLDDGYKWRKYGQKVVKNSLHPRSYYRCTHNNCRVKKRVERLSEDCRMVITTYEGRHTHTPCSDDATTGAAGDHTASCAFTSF

In the assay the target is OsWRKY34 (Oryza sativa, UniProt Q0JBA9 1-250). As to the kind of experiment: protein-binding microarray (RPBM); PBS, 2% BSA, 51.3 ng/ul salmon testes DNA, 50 uM zinc acetate, 200 nM TF, 25 C, 1 h; high values mean tight binding. The following applies: protein: recombinant; tags: N-terminal polyhistidine and DsRed monomer fusion (pET32a); label: CyDye5-dUTP incorporated in the synthesized complementary strand; 3' TTTTT single-stranded linker to array surface; dsDNA, one strand shown. The essentials:
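An Axon 4000B scanner gave the binding signal as per-feature fluorescence intensity in arbitrary units. This followed washing of a custom Agilent array that had been incubated for 1 h at 25 °C with 200 nM protein in PBS, 2% BSA, salmon testes DNA and 50 µM zinc acetate. The proteins were transcription factors fused at the N-terminus to polyhistidine and DsRed, expressed in E. coli BL21-CodonPlus and purified on Ni–NTA.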
On to “GCCTCTGCCACGCCCACCTCATCCGCCTCTACCTCCGCTCCGGAGTCACCTAGTGCAG”, for which the binding signal was 9000 fluorescence intensity (a.u.).
As to “TTTCTTCTTTCTTTCATGCCTTAAGCATCACGTTTGTCACCGGAGTCACCTAGTGCAG”, the binding signal is 8540 fluorescence intensity (a.u.).
The value for “ACAGTTACTTTCCTTATAGCAGTGTAGTTGCCGTGAAAACCGGAGTCACCTAGTGCAG” was 8810 fluorescence intensity (a.u.).
“TATATTGCCCACACCACATGTTGTTCATTGTTGAAGGCACCGGAGTCACCTAGTGCAG”: the binding signal was 8290 fluorescence intensity (a.u.).
In the case of “AAACCTTTATATCATTTTTTATAATTTATGATTTTTGTCTCGGAGTCACCTAGTGCAG”, the binding signal is 8410 fluorescence intensity (a.u.).
The value for “ATTTTAAATGTTTCGTTGACTAAATGGGTTGTTATAGCCGCGGAGTCACCTAGTGCAG” was 10100 fluorescence intensity (a.u.); that for “ACTTCTTTATTACCACGCACTTTTCTTCCTTAGTTTTATTCGGAGTCACCTAGTGCAG” was 13700 fluorescence intensity (a.u.); that for “TGTCGTTGTTTGTCCTGCTGCTTCAGAGTTCAGCTGCATCCGGAGTCACCTAGTGCAG” was 11300 fluorescence intensity (a.u.).
“GCAACCAGCCAGCCAGAAGACTCTTCTATCCTCTTAATTTCGGAGTCACCTAGTGCAG”: the binding signal is 8490 fluorescence intensity (a.u.).
The value for “CACGTACGCCGCCGTGTCTCATCACGAGCTCGATCGTTTCCGGAGTCACCTAGTGCAG” was 8240 fluorescence intensity (a.u.); that for “CCTAGACTCTACCACCATACCACTATCATCACTTCTTCCGCGGAGTCACCTAGTGCAG” was 9330 fluorescence intensity (a.u.); that for “ACACACAGAGCATTCTTCTTTCATGTCTTGTGATCCTTTTCGGAGTCACCTAGTGCAG” was 9250 fluorescence intensity (a.u.).
The value for “TCATCTGTTTTACGCCGTGTTTAGTTTTAAAGTTTTTTTTCGGAGTCACCTAGTGCAG” was 8260 fluorescence intensity (a.u.).
The value for “GATACTTGGTAATGCACACCCGTGAGTTGGCTACTTTCTCCGGAGTCACCTAGTGCAG” was 10200 fluorescence intensity (a.u.); that for “AACGCTGCCGACTATAAATCATCGTATATCACTAACTTTGCGGAGTCACCTAGTGCAG” was 8520 fluorescence intensity (a.u.); that for “TTTTCTTTTGCCATGGTTTATGCAGGAGTTGAACTTATTTCGGAGTCACCTAGTGCAG” was 8200 fluorescence intensity (a.u.).
On to “GATTGACGAATACTTGCATAACCGGTGTTTCCAGTTTCCGCGGAGTCACCTAGTGCAG”, for which the binding signal is 8260 fluorescence intensity (a.u.).
As for “TATACTCTGGTCGTCTCTCGCCAGCTCTGCTCTTCGAGATCGGAGTCACCTAGTGCAG”, the binding signal was 8330 fluorescence intensity (a.u.).
The value for “ATTTACTCACTCAACTCATTTCCCTGATCGTATTGAATCCCGGAGTCACCTAGTGCAG” was 9740 fluorescence intensity (a.u.); that for “GATCCATCTTCTTTGTAACATTTCTTATCTTTCATGTAATCGGAGTCACCTAGTGCAG” was 8550 fluorescence intensity (a.u.); that for “AATTTTCTGCTTCTGTCTGACCTGTTCCATGGATAAAATTCGGAGTCACCTAGTGCAG” was 10600 fluorescence intensity (a.u.).
The value for “ACCGTTCCTCCTATTGTTCAATGGCGAGTCTTTTACTACTCGGAGTCACCTAGTGCAG” was 8120 fluorescence intensity (a.u.); that for “ATCATCATATTATTATTACGGTTCTCAATACAAATTGCAACGGAGTCACCTAGTGCAG” was 8720 fluorescence intensity (a.u.).
The value for “GAAAACCCCTTACGACATCCGGTCAAACTTCCGATGTGACCGGAGTCACCTAGTGCAG” was 8260 fluorescence intensity (a.u.); that for “TGGCTGCAATTTTCACCATATCATCAAAAGTTGGTTTAGGCGGAGTCACCTAGTGCAG” was 9520 fluorescence intensity (a.u.); that for “ACGCGTTGTGAGCGTCTACATGTAGCATGTTTTTTTTTTACGGAGTCACCTAGTGCAG” was 10200 fluorescence intensity (a.u.).
As for “CACCGTGCCTGCCGCCGGCGACTTGACGAGTCCGACCACTCGGAGTCACCTAGTGCAG”, the binding signal was 8300 fluorescence intensity (a.u.).
In the case of “CCGCCGCCGCCTCCGCCTGAAGTGTGGGCCCATCTCGTACCGGAGTCACCTAGTGCAG”, the binding signal is 8320 fluorescence intensity (a.u.).
For the sequence “TGTTTAAGTTTGGTGATTTCAATTCTGACCTGTAAATTGTCGGAGTCACCTAGTGCAG”, the binding signal is 8060 fluorescence intensity (a.u.).
The value for “TTGTGTGTGTGTATCCCCTGTGACACAGTCGTAATCGATGCGGAGTCACCTAGTGCAG” was 10800 fluorescence intensity (a.u.); that for “CTACGTCGCCTTGCTCTTGCCCTCCTCTTATCCTGCGCCGCGGAGTCACCTAGTGCAG” was 8060 fluorescence intensity (a.u.).
Turning to “GATCTCCATCTCCATCTCTCTCTCTCTCTCGAGCAGAGCACGGAGTCACCTAGTGCAG”, the binding signal was 8360 fluorescence intensity (a.u.).
As to “ACCAACAACTACTAATGTCAACGTCTCACATTATACAACTCGGAGTCACCTAGTGCAG”, the binding signal is 9030 fluorescence intensity (a.u.).
“CCTAATATTGTGTGCAGAACCATCGCCTTGGATCATCCTTCGGAGTCACCTAGTGCAG”: the binding signal is 8580 fluorescence intensity (a.u.).
The value for “CGATTGCCAGTTTGCCACCCATCTCACCAGACCACAATTCCGGAGTCACCTAGTGCAG” was 13000 fluorescence intensity (a.u.); that for “CCATTAGATGATAAAATTTTACCTGCTTTTGTAGCTTCTACGGAGTCACCTAGTGCAG” was 8310 fluorescence intensity (a.u.); that for “ATTTCGCCATTGCACCACACCATTTGCATTGCACCAAGAGCGGAGTCACCTAGTGCAG” was 11300 fluorescence intensity (a.u.).
The value for “GTCTAATGAAGTTACCTCTTTCATAAACTTTTGTTTATTTCGGAGTCACCTAGTGCAG” was 8060 fluorescence intensity (a.u.); that for “ACAAACTTCTAACTTTTTCGTCGCATCGTTCCAATTTCAACGGAGTCACCTAGTGCAG” was 9680 fluorescence intensity (a.u.).
The value for “TATCCTGTTACTTTTGCTTGACCTGATGTAATGGACGTAGCGGAGTCACCTAGTGCAG” was 8840 fluorescence intensity (a.u.); that for “GTATTCCTGGCGTGGTTGAGTCAGTGTGTGTGTGTCGTGCCGGAGTCACCTAGTGCAG” was 8500 fluorescence intensity (a.u.).
With “TGTGGCTGTGTTGTGCGACTACCTTGGTCCTTCCTGATTACGGAGTCACCTAGTGCAG”, the binding signal is 8400 fluorescence intensity (a.u.).

The values above are taken from paper PMC7819943, “Rice protein-binding microarrays: a tool to detect cis-acting elements near promoter regions in rice”.
